According to PubChem BioAssay AID463205 (Broad Institute, 2010):
In all, about 2,400 compounds went through this assay and about 20 (0.8%) were called active.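 The calls were made as follows: active = AC50 no more than ten times the highest tested concentration, or full inhibition at every dose giving a flat fit (cut at about 30 µM in these data); inconclusive = flat fit with activity between 30% and 70%, or poor-quality invalid fit; inactive = AC50 more than ten times the top tested dose.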 This is one part of the list.

Experiment: luciferase-based ADP detection interference – biochemical, luminescence, cell-free, homogeneous, artefact control for GSK-3a inhibitor project, dose response (AID 463205);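 also: kinase-free counter-screen against the ADP-Glo detection reagents only; potency is for inhibitors that reduce the luminescence signal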
Conditions: Cell-free ADP-Glo detection reagents, 5 uM ADP

AC50, inactive:
COc1ccc(-c2cc(C(F)(F)F)nc(SCCC(=O)NCc3ccccc3)n2)cc1 > 30 µM, COc1ccc(-c2cc(=O)c3ccccc3o2)cc1 > 30 µM, Cc1cc2oc(C(=O)NCCc3ccc(S(N)(=O)=O)cc3)c(C)c2cc1C > 30 µM, COC(=O)c1cc2cc(Cl)ccc2nc1SC > 30 µM, CC(=O)c1cccc(NC(=S)NC(=O)CC(C)C)c1 > 30 µM, Cc1cccc(-c2nnc(SCc3nc4ccccc4[nH]3)n2Cc2ccco2)c1 > 30 µM, CC1(C)CC(=O)C(C=Nc2ccc(O)cc2)=C(O)C1 > 30 µM, CC(C)OC(=O)/C(C#N)=C/c1c[nH]c2ccccc12 > 30 µM, COc1ccc2[nH]c(C)c(CN3CCCCC3)c(=O)c2c1 > 30 µM, COC(=O)c1cnn(C(=O)c2ccccc2Br)c1N > 30 µM, CC1=Nn2c(nc3sc4c(c3c2=O)CCCC4)SC1 > 30 µM, COc1ccc(COC(=O)C2=C(C)NC(=O)NC2c2ccccc2F)cc1 (stereo not given) > 30 µM, COc1cccc(Nc2nc(-c3ccc(O)cc3)cs2)c1 > 30 µM, Clc1ccc(Nc2ncnc3ccc(Br)cc23)cc1 > 30 µM, Fc1cccc(Nc2nc(-c3ccncc3)nc3ccccc23)c1 > 30 µM, Cn1cc(C2=C(c3ccc(Cl)cc3Cl)C(=O)NC2=O)c2ccccc21 > 30 µM, Cn1c(SCC(=O)N/N=C/C=C/c2ccco2)nc2ccccc21 > 30 µM, O=C(COc1ccccc1Cl)Nc1ccc(Cl)cn1 > 30 µM, O=[N+]([O-])c1ccccc1/C=N/n1c(-c2cccnc2)n[nH]c1=S > 30 µM, Cc1ccc(S(=O)(=O)c2c(C(=O)c3ccccc3)cnc3cc4c(cc23)OCCO4)cc1 > 30 µM, Cc1ccc(OCC(=O)Nc2ccc3c(c2)C(=O)NC3=O)cc1 > 30 µM, CCOC(=O)N1CCc2c(sc3nc(SC(C)C)n(N)c(=O)c23)C1 > 30 µM, N#CC1=C2SCN(Cc3ccco3)CN2C(=O)CC1c1ccc(Cl)cc1 (stereo not given) > 30 µM, Cc1ccc(S(=O)(=O)Nc2cccc3cccnc23)cc1 > 30 µM, O=C(Cn1c(NCCO)nc2ccccc21)NCC1CCCO1 (stereo not given) > 30 µM, CN1CCCN(C(=O)CC(c2ccccc2)c2ccccc2)CC1 > 30 µM, Cc1cc(C)c(/C=N/NC(=O)c2nnn(-c3nonc3N)c2CN2CCC(C)CC2)c(C)c1 > 30 µM, COc1cccc(NC(=O)Nc2cc(Cl)ccc2C)c1 > 30 µM, CCn1c(SCC(=O)N/N=C/C=C\c2ccco2)nc2ccccc21 > 30 µM, CCOC(=O)CC(C#N)c1c[nH]c2ccccc12 (stereo not given) > 30 µM, COc1ccc(C2c3sc(=O)[nH]c3SC3C4CCC(C4)C23)cc1OC (stereo not given) > 30 µM, NC(=O)c1nnn(-c2ccccc2)c1N > 30 µM, Oc1ccc(/C=N/NC(=S)N/N=C/c2ccc(O)cc2)cc1 > 30 µM, O=C1Nc2ccccc2/C1=C/c1cnc(-c2ccccc2)[nH]1 > 30 µM, O=C(Nc1ccsc1C(=O)NC1CCCCC1)c1ccc(F)cc1 > 30 µM, O=[N+]([O-])c1cc(S(=O)(=O)c2ccc(N3CCCCC3)c([N+](=O)[O-])c2)ccc1N1CCCCC1 > 30 µM, Cc1cc(NC(=O)CSc2nc3ccccc3c(=O)n2CCCC(=O)NCc2ccco2)n[nH]1 > 30 µM, Cc1ccc2nc(-c3cccc(N)c3)[nH]c2c1 > 30 µM, O=C(NCCc1csc(-c2cccnc2)n1)c1ccc(Br)o1 > 30 µM, CCOC(=O)Nc1nc(C)c(C(=O)c2ccc(Cl)cc2)s1 > 30 µM, CN1/C(=C\C=C(/C#N)C(=O)Nc2ccccc2F)C(C)(C)c2ccccc21 > 30 µM, COc1c(OC)c(O)c2c(=O)c(O)c(-c3ccccc3)oc2c1OC > 30 µM, Cc1ccc(-c2nnc(CSc3nnc(C)s3)o2)cc1 > 30 µM, CCN(CC)CCCNc1nc(N)c([N+](=O)[O-])c(N2CCCCCC2)n1 > 30 µM, C/C(=N\NC(=O)c1nnn(-c2nonc2N)c1-c1cccs1)c1ccc(O)cc1 > 30 µM, CN1CCc2cccc3c2C1Cc1ccc(O)c(O)c1-3 (stereo not given) > 30 µM, Cc1nc2ncnn2c(C)c1Cc1cccc(F)c1 > 30 µM, Fc1ccc(Nc2ncnc3sccc23)cc1 > 30 µM, CCOc1ccc(C(=O)c2cnc3ccccc3c2N2CCN(CC)CC2)cc1 > 30 µM, CCN1CCN(c2nc(N(C)c3ccccc3)nc(N)c2[N+](=O)[O-])CC1 > 30 µM, CCOc1cc(/C=C2\N=C3CCCCCN3C2=O)ccc1O > 30 µM, Cc1[nH]nc2c1C(c1ccsc1)C1=C(CC(C)(C)CC1=O)N2 (stereo not given) > 30 µM, Cc1cc(O)c(Oc2cc(C)cc(O)c2O)c(O)c1 > 30 µM, O=[N+]([O-])c1ccc(Nc2nc(Cl)nc(NCCO)n2)cc1 > 30 µM, CC(C)c1cc(C(N)=O)c(NC(=O)C2CCC2)s1 > 30 µM, O=C(Nc1cccc(C(=O)NC2CCCCC2)c1)c1ccccc1 > 30 µM, O=[N+]([O-])c1ccc(N/N=C/c2cn(Cc3ccc(F)cc3)c3ccccc23)nc1 > 30 µM, CC1=[N+](C)c2ccc3ccccc3c2C1(C)C > 30 µM, COc1cc(/C=C/c2cc[n+](C)cc2)ccc1OCC(=O)Nc1ccc(Cl)c(Cl)c1 > 30 µM, Cc1cc2[nH]c(=S)[nH]c2cc1C > 30 µM, O=C1NC(=Nc2ccccc2Cl)S/C1=C\c1cccc([N+](=O)[O-])c1O > 30 µM, Cc1ccc(C)c(Sc2ccc(NC(=O)CCl)cc2)c1 > 30 µM, COCCNc1nc(N)c([N+](=O)[O-])c(NCc2ccccc2)n1 > 30 µM, CC(=O)Nc1n[nH]c(-c2ccc(C)cc2)c1C > 30 µM, O=C(CNCC1CCCO1)Nc1ccc([N+](=O)[O-])cc1C(=O)Nc1ccccc1F (stereo not given) > 30 µM, O=C1c2cccc(O)c2C(=O)c2c(O)cc(CO)cc21 > 30 µM, CCOC(=O)N1CCC(N2CCN(S(=O)(=O)c3ccc4ccccc4c3)CC2)CC1 > 30 µM, CCOC(=O)N1CCc2c(sc3nc4n(c(=O)c23)N=C(C)CS4)C1 > 30 µM, CC1(C)Cc2cccc(C(=O)Nc3ccc(Cl)cc3)c2O1 > 30 µM, CC1=C(C(=O)OCc2ccccc2)C(c2cccc(F)c2)NC(=O)N1 (stereo not given) > 30 µM, N#CC(C#N)=C1CCc2ccccc2N1 > 30 µM, COc1ccc(N=Cc2c(O)[nH]c3ccccc23)cc1 > 30 µM, C/C(=N\NC(=O)c1ccccc1NC(=O)c1ccc(Cl)cc1)c1ccncc1 > 30 µM, COc1ccc(C2CC(=O)N3CN(c4ccccc4F)CSC3=C2C#N)cc1OC (stereo not given) > 30 µM, O=C1OCCC1Sc1nnc(-c2ccc3c(c2)OCO3)o1 (stereo not given) > 30 µM, CC(C)NC(=S)Nc1ccc2cn[nH]c2c1 > 30 µM, CCOc1ccccc1NC(=O)Nc1ccc(Cl)cc1 > 30 µM, Cc1ccc(Sc2nc(-c3ccccc3)nnc2C(F)(F)F)cc1 > 30 µM, S=C(NCCc1ccccc1)Nc1cccc2cnccc12 > 30 µM, O=C(NCCN1CCN(Cc2ccccc2)CC1)Nc1cc(Cl)cc(Cl)c1 > 30 µM, COc1cc(/C=N\NC(=O)c2ccc(-c3ccccc3)cc2)cc(Br)c1O > 30 µM, Cc1cccc(N(CC(O)CN2CCCC2)S(=O)(=O)c2ccccc2)c1 (stereo not given) > 30 µM, COCCNC(=O)c1ccc(Cn2c(=S)[nH]c3cc4c(cc3c2=O)OCO4)cc1 > 30 µM, CCC(=N\NC(=O)COc1ccccc1OC)/C(CC)=N/NC(=O)COc1ccccc1OC > 30 µM, Cc1ccc2nc(-c3ccccn3)[nH]c2c1 > 30 µM, C[C@@H]1O[C@@H](Oc2c(-c3ccc(O)c(O)c3)oc3cc(O)cc(O)c3c2=O)[C@H](O)[C@H](O)[C@H]1O > 30 µM, CCCNC(=O)NC(C(=O)OC)C12CC3CC(CC(C3)C1)C2 (stereo not given) > 30 µM, CCc1cc2c3c(c(=O)oc2cc1O)CCCC3 > 30 µM, Nc1ccc2nc(C3CCCCC3)[nH]c2c1 > 30 µM, N#CC1=C2SCN(Cc3ccco3)CN2C(=O)CC1c1ccccc1F (stereo not given) > 30 µM, Cc1nn(CCOc2ccccc2)c(=O)n1-c1ccccc1F > 30 µM, Cc1ccc2nc(-c3ccccc3N)[nH]c2c1 > 30 µM, Cc1ccc2c(c1)COc1c3ccc(C(=O)N4CCOCC4)cc3nn1-2 > 30 µM, CC1=C(C(=O)Nc2cccc(F)c2)C(c2ccsc2)C2=C(CC(C)(C)CC2=O)N1 (stereo not given) > 30 µM, Cc1sc2ncnc(N3CCC(C(=O)Nc4ccc(C#N)cc4)CC3)c2c1C > 30 µM
